Experimental data as given in publication PMC10958042.
Results are given in words; binding and its absence hold for the method and conditions named. In cells and extracts the contact can be indirect. Some results given as binding are weak or reduced against the parent protein; the word gives no strength. Tags and fused reporters may be left off the sequences shown.

Molecular target: T1, Protein A-ATGL P258L (human) (UniProt Q96AD5)
T1 sequence: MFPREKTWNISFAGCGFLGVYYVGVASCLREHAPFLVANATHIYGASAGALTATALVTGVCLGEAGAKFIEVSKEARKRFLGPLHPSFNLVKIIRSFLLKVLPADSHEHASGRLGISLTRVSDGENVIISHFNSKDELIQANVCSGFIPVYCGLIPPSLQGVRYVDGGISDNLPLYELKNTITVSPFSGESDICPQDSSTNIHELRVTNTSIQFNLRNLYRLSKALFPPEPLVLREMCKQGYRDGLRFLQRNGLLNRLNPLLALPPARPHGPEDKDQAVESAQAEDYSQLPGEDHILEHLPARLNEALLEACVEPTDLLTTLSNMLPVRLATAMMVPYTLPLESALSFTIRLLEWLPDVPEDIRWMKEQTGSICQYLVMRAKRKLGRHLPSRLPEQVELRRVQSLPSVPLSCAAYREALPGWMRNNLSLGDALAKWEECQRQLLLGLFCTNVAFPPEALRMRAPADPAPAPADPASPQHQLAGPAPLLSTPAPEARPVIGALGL
Assay: co-IP; LUMIER luminescence-based co-immunoprecipitation: Protein A-ATGL variant and firefly-luciferase partner co-expressed in HEK293T, SDS-free RIPA2 lysate precipitated in IgG-coated plates 2 h at 4 °C, luminescence read; log2 fold change against wild-type ATGL, two experiments in triplicate

binding: binds
B1: CIDEC wild type, firefly-luciferase fusion (protein, UniProt Q96AQ7 1-238)
chain: MEYAMKSLSLLYPKSLSRHVSVRTSVVTQQLLSEPSPKAPRARPCRVSTADRSVRKGIMAYSLEDLLLKVRDTLMLADKPFFLVLEEDGTTVETEEYFQALAGDTVFMVLQKGQKWQPPSEQGTRHPLSLSHKPAKKIDVARVTFDLYKLNPQDFIGCLNVKATFYDTYSLSYDLHCCGAKRIMKEAFRWALFSMQATGHVLLGTSCYLQQLLDATEEGQPPKGKASSLIPTCLKILQ
